In PubChem BioAssay AID624291 (National Center for Advancing Translational Sciences (NCATS), 2012):
Hit rate of the full screen: of about 350,000 compounds, about 220 (0.063%) were called active. The shares of active, inactive and inconclusive entries below differ from those in the screen. Calls follow the shape of the dose curve; as a rule, active = well fitted activation curve with a large enough effect; inconclusive = small, poorly fitted or top-dose-only effect; inactive = no such curve, though single readings can be large or run the other way. Potencies of inconclusive entries are doubtful fits and often do not repeat.
Potency is read from the fitted curve at half-maximal effect.

Assay: qHTS for Activators of Integrin-Mediated Alleviation for Muscular Dystrophy; also: nearly all actives have a fitted effect of over 60% in size;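 as to activation: 100% = response of the positive control SU9516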
Conditions: alpha7betagal myoblasts, beta-gal FDG fluorescence, 48 h; activation: at 38.3 µM (top of the series)
In short: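 alpha7betagal+/- myoblasts (passage 13, 250/well) treated 48 h at 37C with compounds at 1:260 dilution of DMSO stock. Lysed, then beta-galactosidase activity read as FDG fluorescence (ex 480/em 540) after 30 min, with pre-read for autofluorescence.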
In the case of `COCCn1c(N)c(Sc2ccccc2[N+](=O)[O-])c(=O)[nH]c1=O`, the Potency is reported as inconclusive: 5.01 µM [activator, single point].
In the case of `CCCN1CCC(N2CCN(c3cccc(C(F)(F)F)c3)CC2)CC1`, the Potency is reported as “inactive”.
With `CC12CC3(C)CC(C)(C1)CC(C(=O)NCCc1ccc(S(N)(=O)=O)cc1)(C2)C3` the Potency was inconclusive: 2 µM [activator, partial curve, poor fit].
With `CC1CC(O)C(C)CN1` (configuration not stated) the Potency was inconclusive: 1 µM [activator, full curve].
With `Cc1ccccc1NC(=O)C(=O)NC(C)CCc1ccccc1` (configuration not stated) the Potency was inconclusive: 10 µM [activator, single point].
In the case of `COC(=O)c1cc(C(=O)OC)cc(N2C(=O)CC(NNC(=O)c3ccc(C)cc3)C2=O)c1` (configuration not stated), the Potency is reported as inconclusive: 5.62 µM [activator, partial curve, poor fit].
With `CCc1nnc(NS(=O)(=O)c2ccc(NC(=O)c3ccco3)cc2)s1` the Potency was inconclusive: 14.1 µM [activator, partial curve, poor fit].
With `COc1cc(C)c(S(=O)(=O)NOCc2ccccc2)c(C)c1C` the Potency was inconclusive: 11.2 µM [activator, partial curve, poor fit].
With `Nc1c(CO)nnn1-c1ccccc1` the Potency was “inactive”.
For `CCc1ccc(C(=O)Nc2cc(C)on2)o1`, the Potency was inconclusive: 10 µM [activator, partial curve, poor fit].
With `COC(=O)c1ccc(COC(=O)CCC(=O)c2cccs2)cc1` the Potency was “inactive”.
With `C[C@H](NC(=O)c1ccco1)C(=O)Nc1cccc([N+](=O)[O-])c1` the Potency was inconclusive: 10 µM [activator, partial curve, poor fit].
In the case of `CCCCn1cc([N+](=O)[O-])nc1C`, the Potency is reported as inconclusive: 3.98 µM [activator, single point].
For `Cc1cc(C)nc(NC2=NCCN2C(=S)Nc2c(C)cccc2C)n1`, the activation was inconclusive: 56.9% [activator].
With `Cc1cc(C(=O)COC(=O)c2ccc(O)cc2O)c(C)n1-c1ccccc1` the Potency was “inactive”.
For `O=C(Nc1ccc(Cl)c(S(=O)(=O)N2CCCCC2)c1)c1cnccn1`, the Potency was inconclusive: 10 µM [activator, single point].
For `CCCNC(=S)Nc1ccc(Nc2ccccc2)cc1`, the Potency was “inactive”.
In the case of `O=C(C1COc2ccccc2O1)N1CCCCC1` (configuration not stated), the Potency is reported as inconclusive: 4.47 µM [activator, single point].
For `CC(=O)N1c2ccccc2C(=O)C1N(C)c1ccc(C)cc1` (configuration not stated), the Potency was “inactive”.
In the case of `O=C(NCCc1ccccc1)C1CCCN1C(=O)Nc1ccccc1` (configuration not stated), the Potency is reported as inconclusive: 0.794 µM [activator, single point].
In the case of `O=C(/C=C/c1ccc(Cl)cc1)Nc1ccc(S(=O)(=O)Nc2ncccn2)cc1`, the Potency is reported as inconclusive: 28.2 µM [activator, single point].
With `COc1cc([N+](=O)[O-])ccc1NC(=O)NN1CCN(C)CC1` the Potency was inconclusive: 11.2 µM [activator, partial curve, poor fit].
For `COc1ccccc1CNC(=O)c1cc(C)nn1-c1ccccc1`, the Potency was inconclusive: 5.01 µM [activator, single point].
For `Nc1ccc2c(c1)C(=O)Cc1ccccc1S2`, the Potency was inconclusive: 5.62 µM [activator, partial curve, poor fit].
In the case of `COc1ccc(CCn2c(N)c(C#N)c3nc4ccccc4nc32)cc1OC`, the Potency is reported as “inactive”.
In the case of `O=C(O)c1ccc2[nH]c3c(c2c1)CCCC3`, the Potency is reported as inconclusive: 10 µM [activator, partial curve, poor fit].
In the case of `CN1CCN(CCCNC(=O)c2ccc(NC(=O)C3=CSCCO3)cc2)CC1`, the Potency is reported as inconclusive: 3.16 µM [activator, single point].
With `CC(=NCCCn1ccnc1)c1c(-c2ccccc2)[nH]n(-c2nc3ccccc3s2)c1=O` the Potency was “inactive”.
In the case of `CCCCn1c(NC(=S)Nc2ccccc2)nc2ccccc21`, the Potency is reported as “inactive”.
With `O=C(O)c1cccc(NC(=O)c2cccc(S(=O)(=O)N3CCCCC3)c2)c1` the Potency was “inactive”.
In the case of `C=CCC(=O)N1CCCC(CO)(Cc2ccc(F)cc2F)C1` (configuration not stated), the Potency is reported as inconclusive: 28.2 µM [activator, single point].
In the case of `Cc1ccccc1N=CC1=C(O)c2ccccc2C1=O`, the Potency is reported as inconclusive: 2.82 µM [activator, single point].
With `COc1ccc(C(=O)COC(=O)c2cncc(Br)c2)cc1` the Potency was inconclusive: 28.2 µM [activator, single point].
In the case of `CC1CCN(Cc2c(C(=O)N3CCc4ccccc4C3)nc3ccc(Cl)cn23)CC1`, the Potency is reported as inconclusive: 4.47 µM [activator, single point].
For `O=C(NCCCNCc1ccccc1)/C(=N\O)c1ccccc1`, the Potency was “inactive”.
For `COc1cc(NC(=O)c2ccccc2OCc2ccccc2)cc(OC)c1OC`, the Potency was inconclusive: 0.562 µM [activator, full curve, poor fit].
In the case of `COC(=O)c1cc(C(=O)NCC2CCCCC2)cc([N+](=O)[O-])c1`, the Potency is reported as inconclusive: 28.2 µM [activator, single point].
With `Cc1noc(/C=C/N(C)C)c1S(=O)(=O)N1CCCC(C(=O)Nc2ccc(F)cc2F)C1` (configuration not stated) the Potency was inconclusive: 5.01 µM [activator, single point].
For `CN(C)NC(=S)Nc1ccc(Cl)cc1`, the Potency was “inactive”.
With `C=CCN(CC=C)S(=O)(=O)c1ccc(NC(=S)NC(=O)/C=C/c2cccc3ccccc23)cc1` the Potency was “inactive”.
With `Fc1ccc(C(c2nnnn2Cc2ccccc2)N2CCSCC2)cc1` (configuration not stated) the Potency was inconclusive: 10 µM [activator, single point].
For `COc1ccc(C(=O)NNC2=C(C(=O)C(F)(F)F)CCC2)cc1`, the Potency was “inactive”.
With `O=C(Nc1ccc2c(c1)OCO2)c1ccccn1` the Potency was “inactive”.
For `O=C(c1ccc2oc(CCCc3ccccc3)nc2c1)N1CCCC(CCCO)C1` (configuration not stated), the Potency was inconclusive: 20 µM [activator, single point].
With `COc1ccc(OCCSc2nc3nc(C)cc(C)n3n2)cc1` the Potency was inconclusive: 0.447 µM [activator, full curve, poor fit].
With `COc1cc(/C=C2\S/C(=N/S(=O)(=O)c3ccccc3)NC2=O)c([N+](=O)[O-])cc1OC` the Potency was “inactive”.
In the case of `COc1ccc(C(=O)c2sc(Nc3cccc(OC)c3)c(C(=O)Nc3cccc(C)c3C)c2N)cc1`, the Potency is reported as “inactive”.
In the case of `COc1cc(C)c(/C=C(\C#N)C(=O)Nc2ccc(C)cc2)cc1C(C)C`, the Potency is reported as inconclusive: 28.2 µM [activator, partial curve, poor fit].
With `CC(=O)Nc1ccc2c(c1)nc(CCNC(=O)c1ccco1)n2C` the Potency was inconclusive: 14.1 µM [activator, partial curve, poor fit].
In the case of `Cc1cc(C)cc(C(=O)N/N=C/c2ccoc2)c1`, the Potency is reported as inconclusive: 2.82 µM [activator, partial curve, poor fit].
With `O=C(NCCN1CCOCC1)C(=O)NCC1OCCCN1S(=O)(=O)c1ccc(F)cc1` (configuration not stated) the Potency was inconclusive: 25.1 µM [activator, single point].
In the case of `COc1cc(C)c(S(=O)(=O)Nc2ccccc2F)cc1C`, the Potency is reported as inconclusive: 15.8 µM [activator, single point].
For `CCN(CC1CCCO1)C(=O)c1cc(COc2ccc(OC)cc2Cl)on1` (configuration not stated), the Potency was inconclusive: 2 µM [activator, full curve, poor fit].
For `CC(C)CC(=O)Nc1ccc(C(=O)NN2C(=O)c3ccccc3C2=O)cc1`, the Potency was “inactive”.
With `Cc1cc(C)cc(Nc2nc3c([nH]2)c(=O)n(C)c(=O)n3C)c1` the Potency was inconclusive: 0.501 µM [activator, full curve, poor fit].
With `CC(C)CCn1c(=O)c2ccccc2c2ccccc2c1=O` the Potency was “inactive”.
In the case of `COc1ccc(CNC(=O)c2[nH]c(C)c(C(C)=O)c2C)cc1`, the Potency is reported as “inactive”.
For `O=C(CSc1nnc(NC(=O)C2CC(=O)N(c3ccc(F)cc3)C2)s1)NC1CCCC1` (configuration not stated), the Potency was inconclusive: 5.62 µM [activator, partial curve, poor fit].
With `COc1ccccc1CNC(=O)COc1ccc2c(c1)CCC2` the Potency was inconclusive: 5.01 µM [activator, single point].
In the case of `O=C(CSc1cccc[n+]1[O-])c1ccc(-c2ccccc2)cc1`, the Potency is reported as inconclusive: 2.82 µM [activator, partial curve, poor fit].
For `O=C1C=C(c2cccs2)CC(c2cccs2)C1n1cnc([N+](=O)[O-])c1` (configuration not stated), the Potency was inconclusive: 14.1 µM [activator, single point].
In the case of `COc1ccc(-c2nc3c4ccccc4[nH]c(=O)n3n2)cc1`, the Potency is reported as “inactive”.
With `O=C(Nc1ccc(Cl)cc1)c1cc2nc(-c3ccco3)cc(C(F)(F)F)n2n1` the Potency was “inactive”.
In the case of `CCn1cnc2cc(NCc3cccs3)ccc21`, the Potency is reported as “inactive”.
For `CCCC1C(C#N)=C(N)Oc2cc(C)n(C)c(=O)c21` (configuration not stated), the Potency was “inactive”.
In the case of `Nc1nc2ccccc2n1CCOc1ccc(Br)cc1`, the Potency is reported as inconclusive: 5.01 µM [activator, single point].
With `Cc1ccc(S(=O)(=O)N2CCCCC2)cc1NC(=O)c1cncc(Br)c1` the Potency was “inactive”.
For `COc1ccccc1N1CCN(S(=O)(=O)c2cn(C)cn2)CC1`, the Potency was inconclusive: 31.6 µM [activator, partial curve, poor fit].
With `O=C(c1ccccc1)c1ccc2cc(O)ccc2c1` the Potency was inconclusive: 11.2 µM [activator, single point].
For `O=C(Cn1nnc2ccccc2c1=O)NCC1CCC(C(=O)O)CC1` (configuration not stated), the Potency was inconclusive: 3.16 µM [activator, single point].
For `O=C(CCc1ccccc1)Nc1cc2c3c(c1)CC(=O)N3CCC2`, the Potency was inconclusive: 5.62 µM [activator, partial curve, poor fit].
With `O=C1CC[C@@H](CN(Cc2ccccn2)Cc2nc(-c3ccc(C(F)(F)F)cc3)no2)N1` the Potency was inconclusive: 2 µM [activator, partial curve, poor fit].
